Data from paper PMC11161732.
Results are given in words; binding and its absence hold for the method and conditions named. In cells and extracts the contact can be indirect. Some binding calls cover weakened binding; strength is not graded here. For part of these data: Where a sequence is shown, tags or fusion partners need not be part of it. Values belong to the binder of their own block, whether it stands above or below them.

Legend:
GST-RIP1(27–439) = biological target: T1, GST-RIP1(27–439) (UniProt P48552); test: pull-down; purified GST fusion proteins on glutathione sepharose 4B beads incubated with cell-free-synthesized unlabeled protein in NETN buffer (20 mM Tris pH 8, 100 mM NaCl, 1 mM EDTA, 0.5% Nonidet-P40, 1 mM DTT) overnight at 4 °C; 4 washes; SDS/PAGE; only the target purified
T1 sequence: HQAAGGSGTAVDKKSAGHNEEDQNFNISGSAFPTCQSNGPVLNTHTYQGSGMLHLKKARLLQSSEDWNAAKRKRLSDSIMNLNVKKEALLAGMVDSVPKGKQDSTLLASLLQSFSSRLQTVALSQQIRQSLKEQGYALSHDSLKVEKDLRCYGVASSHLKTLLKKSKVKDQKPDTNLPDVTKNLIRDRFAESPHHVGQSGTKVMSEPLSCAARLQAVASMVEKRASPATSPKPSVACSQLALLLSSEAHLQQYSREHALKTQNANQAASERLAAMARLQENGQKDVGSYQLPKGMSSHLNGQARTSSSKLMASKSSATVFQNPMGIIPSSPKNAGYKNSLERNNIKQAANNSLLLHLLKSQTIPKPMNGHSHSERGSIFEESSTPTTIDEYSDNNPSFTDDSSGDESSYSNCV

[1] = biological target: T2, RIP140 (receptor-interacting protein of 140 kDa), endogenous (human (endogenous in SW620 and HT29)) (UniProt P48552); test: proximity ligation; Duolink PLA in fixed, permeabilised SW620 cells with primary antibodies against RIP140 (sc-9459) and HES1 (#11988); endogenous proteins
T2 sequence: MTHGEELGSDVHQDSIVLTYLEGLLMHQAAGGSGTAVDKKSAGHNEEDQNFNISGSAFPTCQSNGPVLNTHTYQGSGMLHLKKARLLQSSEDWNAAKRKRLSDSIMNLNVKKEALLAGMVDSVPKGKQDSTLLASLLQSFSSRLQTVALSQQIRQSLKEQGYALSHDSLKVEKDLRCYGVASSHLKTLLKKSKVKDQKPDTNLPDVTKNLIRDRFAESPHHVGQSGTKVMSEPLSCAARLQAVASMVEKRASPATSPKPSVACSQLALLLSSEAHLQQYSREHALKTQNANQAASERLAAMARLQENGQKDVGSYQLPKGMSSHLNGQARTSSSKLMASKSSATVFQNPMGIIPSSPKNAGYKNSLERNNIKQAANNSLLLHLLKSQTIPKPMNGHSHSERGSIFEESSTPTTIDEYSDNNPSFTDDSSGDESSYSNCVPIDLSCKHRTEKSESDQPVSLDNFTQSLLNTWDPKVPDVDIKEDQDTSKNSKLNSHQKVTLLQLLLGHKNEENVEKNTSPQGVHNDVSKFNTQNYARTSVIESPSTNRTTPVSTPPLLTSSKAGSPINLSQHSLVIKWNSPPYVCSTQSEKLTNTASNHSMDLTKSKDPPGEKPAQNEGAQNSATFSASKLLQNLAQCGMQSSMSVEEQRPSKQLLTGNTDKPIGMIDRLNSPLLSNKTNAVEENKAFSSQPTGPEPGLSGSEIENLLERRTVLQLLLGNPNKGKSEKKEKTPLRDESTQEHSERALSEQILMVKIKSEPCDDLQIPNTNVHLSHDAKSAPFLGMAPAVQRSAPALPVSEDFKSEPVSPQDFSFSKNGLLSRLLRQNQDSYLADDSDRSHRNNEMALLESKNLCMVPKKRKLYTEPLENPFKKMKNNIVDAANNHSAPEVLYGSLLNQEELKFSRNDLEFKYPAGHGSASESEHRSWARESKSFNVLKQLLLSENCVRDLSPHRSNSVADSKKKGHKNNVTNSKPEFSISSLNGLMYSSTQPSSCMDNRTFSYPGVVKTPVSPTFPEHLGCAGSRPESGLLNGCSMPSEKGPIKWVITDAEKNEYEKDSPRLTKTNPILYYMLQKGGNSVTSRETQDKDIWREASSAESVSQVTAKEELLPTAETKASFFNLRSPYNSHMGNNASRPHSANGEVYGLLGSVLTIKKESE

[2] = biological target: T2, RIP140 (receptor-interacting protein of 140 kDa), endogenous (human (endogenous in SW620 and HT29)); test: proximity ligation; Duolink PLA in fixed, permeabilised HT29 cells with primary antibodies against RIP140 (sc-9459) and HES1 (#11988); endogenous proteins

binding (GST-RIP1(27–439)): binds
B1: in vitro translated HES1 protein (protein, UniProt Q14469 1-280)
chain: MPADIMEKNSSSPVAATPASVNTTPDKPKTASEHRKSSKPIMEKRRRARINESLSQLKTLILDALKKDSSRHSKLEKADILEMTVKHLRNLQRAQMTAALSTDPSVLGKYRAGFSECMNEVTRFLSTCEGVNTEVRTRLLGHLANCMTQINAMTYPGQPHPALQAPPPPPPGPGGPQHAPFAPPPPLVPIPGGAAPPPGGAPCKLGSQAGEAAKVFGGFQVVPAPDGQFAFLIPNGAFAHSGPVIPVYTSNSGTSVGPNAVSPSSGPSLTADSMWRPWRN

binding [1]: binds
binding [2]: binds
B2: HES1 (hes family bHLH transcription factor 1), endogenous (protein, UniProt Q14469 1-280)
chain: B1 chain
